{
  "source": "patent EP3160993",
  "about": "(dated 2016)",
  "test": "general procedure: Fmoc solid-phase peptide synthesis; 2-Cl-trityl resin",
  "settings": "whole synthesis",
  "data": [
    {"substance": "linear octapeptide III", "values": [
      {"measurement": "isolated mass", "result": 143, "unit": "mg"},
      {"measurement": "isolated yield", "setting": "on resin substitution after first amino acid (285 µmol), scale of the general procedure 400 x 10^-6 mol of active groups", "result": 55, "unit": "%"}
    ]}
  ]
}
